From article PMC4337721
No constants are given. Whether binding was seen depends on the method and setting. Some results given as binding are weak or reduced against the parent protein; the word gives no strength.

Sequences of proteins named here, by UniProt entry; tags and fusion partners are left off. A change or cut given only in a name is not applied to a line headed by its entry. A line that says so, or that is headed by a name, gives the form on record, which may keep a tag or linker. Residues count along the entry.
UniProt P11021: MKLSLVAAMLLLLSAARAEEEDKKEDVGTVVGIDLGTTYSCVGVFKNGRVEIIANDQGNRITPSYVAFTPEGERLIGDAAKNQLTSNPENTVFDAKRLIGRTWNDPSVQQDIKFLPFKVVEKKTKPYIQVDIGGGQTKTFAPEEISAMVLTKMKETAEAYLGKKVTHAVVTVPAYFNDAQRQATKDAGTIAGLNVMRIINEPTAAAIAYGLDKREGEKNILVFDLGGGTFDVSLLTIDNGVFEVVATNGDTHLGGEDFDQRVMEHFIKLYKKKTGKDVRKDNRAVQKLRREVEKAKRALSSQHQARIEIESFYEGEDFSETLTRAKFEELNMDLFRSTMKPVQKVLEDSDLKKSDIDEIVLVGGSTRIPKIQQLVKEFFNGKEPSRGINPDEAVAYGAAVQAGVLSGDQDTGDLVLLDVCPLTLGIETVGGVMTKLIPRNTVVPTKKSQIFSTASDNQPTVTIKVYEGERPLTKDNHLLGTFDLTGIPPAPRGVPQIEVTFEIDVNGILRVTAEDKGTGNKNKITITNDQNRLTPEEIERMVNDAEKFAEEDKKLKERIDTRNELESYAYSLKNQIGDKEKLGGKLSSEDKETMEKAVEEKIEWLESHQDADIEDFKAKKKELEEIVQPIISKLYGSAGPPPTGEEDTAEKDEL
His6-tagged full-length BiP (residues 28–654): residues 28-654 of P11021
BiP substrate binding domain (residues 422–654), His6-tag removed: residues 422-654 of P11021
UniProt Q9NZJ5, residues 54-509: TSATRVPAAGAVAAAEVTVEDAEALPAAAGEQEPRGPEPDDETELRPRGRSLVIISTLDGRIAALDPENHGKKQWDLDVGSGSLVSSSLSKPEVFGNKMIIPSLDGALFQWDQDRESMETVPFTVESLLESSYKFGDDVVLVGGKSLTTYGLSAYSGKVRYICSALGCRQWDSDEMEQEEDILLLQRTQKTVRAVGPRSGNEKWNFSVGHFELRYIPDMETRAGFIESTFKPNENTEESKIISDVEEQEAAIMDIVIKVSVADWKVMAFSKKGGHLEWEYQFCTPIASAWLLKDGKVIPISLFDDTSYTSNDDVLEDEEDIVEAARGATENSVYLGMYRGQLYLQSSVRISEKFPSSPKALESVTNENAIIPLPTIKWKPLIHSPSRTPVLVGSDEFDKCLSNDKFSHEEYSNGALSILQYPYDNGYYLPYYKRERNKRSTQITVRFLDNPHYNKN

What was measured:
[1] = biological target: His6-tagged BiP ATPase domain (residues 28–405) (human) (UniProt P11021); experiment: cross-linking; EGS, 50-fold molar excess, 1 hr; proteins at 50 μM in 50 mM Hepes pH 8.0, 50 mM NaCl, 5% glycerol, 5 mM DTT; alone or in 1:1 molar mixture; SDS-PAGE and anti-His6 blot; both purified
[2] = biological target: His6-tagged full-length BiP (residues 28–654) (human) (UniProt P11021); experiment: condition: only BiP first incubated with CH1 (500 μM); pull-down; competition pull-down: His6-tagged full-length BiP on TALON resin; CH1 (500 μM) added to the BiP-luminal domain complex, or BiP first incubated with CH1 and luminal domains then added; buffer B, RT; both purified
[3] = biological target: full-length BiP (BiP FL, residues 28–654), His6-tag removed (human) (UniProt P11021); experiment: MST; as a1, buffer B with 10 mM ATP, ADP or AMPPNP, 10 mM MgCl2 and 30 mM KCl; 25°C; both purified
[4] = biological target: His6-tagged full-length BiP (residues 28–654) (human) (UniProt P11021); experiment: pull-down; competition pull-down: His6-tagged full-length BiP on TALON resin; CH1 (500 μM) added to the BiP-luminal domain complex, or BiP first incubated with CH1 and luminal domains then added; buffer B, RT; both purified
[5] = biological target: His6-tagged full-length BiP (residues 28–654) (human) (UniProt P11021); experiment: pull-down; both purified
[6] = biological target: His6-tagged BiP ATPase domain (residues 28–405) (human) (UniProt P11021); experiment: pull-down; His6-tagged BiP protein (25 μM) held on TALON resin, untagged Ire1 LD, Perk LD or CH1 at 500 μM added, 1 hr RT, buffer B; SDS-PAGE, coomassie; both purified
[7] = biological target: His6-tagged BiP substrate binding domain (residues 422–654) (human) (UniProt P11021); experiment: as above
[8] = biological target: His6-tagged full-length BiP (residues 28–654) (human) (UniProt P11021); experiment: as above
[9] = biological target: BiP substrate binding domain (residues 422–654), His6-tag removed (human) (UniProt P11021); experiment: MST; Monolith NT.115; buffer B (50 mM HEPES pH 7.5, 75 mM NaCl, 10% glycerol, 1 mM TCEP), no nucleotide; one partner labelled (Red-NHS) at 50 nM, sixteen twofold dilutions of the unlabelled partner (which was labelled is not told); 25°C; three independent experiments averaged; both purified

Row | binding [1] | binding [2] | binding [3] | binding [4] | binding [5] | binding [6] | binding [7] | binding [8] | binding [9] | Substance
1 | no binding (tested: 50 μM) |  |  |  |  |  |  |  |  | His6-tagged BiP ATPase domain (residues 28–405) (from UniProt P11021 28-405) (domain or fragment)
2 |  | no binding | binds | binds | binds | binds | no binding (tested: 500 μM) | binds | no binding | Perk luminal domain, complete (region I–V, residues 54–509) (from UniProt Q9NZJ5 54-509) (domain or fragment)
